This experiment has as its target T1, Mitsugumin 53 (MG53), endogenous in rabbit skeletal muscle triad vesicles (rabbit (endogenous in skeletal muscle triad vesicles)) (UniProt Q1XH18).
T1 sequence: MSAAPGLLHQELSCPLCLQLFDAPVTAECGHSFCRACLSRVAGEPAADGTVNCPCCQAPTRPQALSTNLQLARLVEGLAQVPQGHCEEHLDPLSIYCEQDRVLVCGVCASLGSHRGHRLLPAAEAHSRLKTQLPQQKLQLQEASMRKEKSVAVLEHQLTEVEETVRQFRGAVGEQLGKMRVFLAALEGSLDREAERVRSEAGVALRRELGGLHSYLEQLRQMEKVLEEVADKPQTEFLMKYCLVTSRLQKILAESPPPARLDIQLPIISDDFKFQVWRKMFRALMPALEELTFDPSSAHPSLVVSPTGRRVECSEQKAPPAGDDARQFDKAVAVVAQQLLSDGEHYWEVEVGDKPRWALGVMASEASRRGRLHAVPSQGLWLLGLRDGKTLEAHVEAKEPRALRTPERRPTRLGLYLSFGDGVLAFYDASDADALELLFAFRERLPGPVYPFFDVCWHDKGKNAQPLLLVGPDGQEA
Kind of experiment: co-IP; solubilized triad vesicle sample from rabbit skeletal muscle (30 μg of total proteins); immunoprecipitation with anti-Orai1 or anti-MG53 antibody; immunoblot with various antibodies; reaction without antibody as negative control. On the technique in general: A western blot detects proteins with antibodies after separation by electrophoresis.

Results are given in words; binding and its absence hold for the method and conditions named. In cells and extracts the contact can be indirect. A result given as binding can be weak or reduced; the word gives no strength.

Take “Dihydropyridine receptor (DHPR), endogenous in rabbit skeletal muscle triad vesicles”: the binding result is recorded as “no binding”.
For the substance “TRPC4, endogenous in rabbit skeletal muscle triad vesicles”, the binding entry was “no binding”.
The value for “TRPC3, endogenous in rabbit skeletal muscle triad vesicles” was “binds”.
Under “STIM1, endogenous in rabbit skeletal muscle triad vesicles” stands “no binding”.

For the origin of these results see PMC5107933.
